The results in this text go back to the supplement of paper PMC11732987, “Enantioselective OTUD7B fragment discovery through chemoproteomics screening and high-throughput optimisation” (Communications Chemistry, 2025).

Sequences of proteins named here, by UniProt entry; tags and fusion partners are left off. A change or cut given only in a name is not applied to a line headed by its entry. Residues count along the entry.
UniProt Q96K58, 40-65: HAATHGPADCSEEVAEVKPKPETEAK
UniProt Q9UBW7: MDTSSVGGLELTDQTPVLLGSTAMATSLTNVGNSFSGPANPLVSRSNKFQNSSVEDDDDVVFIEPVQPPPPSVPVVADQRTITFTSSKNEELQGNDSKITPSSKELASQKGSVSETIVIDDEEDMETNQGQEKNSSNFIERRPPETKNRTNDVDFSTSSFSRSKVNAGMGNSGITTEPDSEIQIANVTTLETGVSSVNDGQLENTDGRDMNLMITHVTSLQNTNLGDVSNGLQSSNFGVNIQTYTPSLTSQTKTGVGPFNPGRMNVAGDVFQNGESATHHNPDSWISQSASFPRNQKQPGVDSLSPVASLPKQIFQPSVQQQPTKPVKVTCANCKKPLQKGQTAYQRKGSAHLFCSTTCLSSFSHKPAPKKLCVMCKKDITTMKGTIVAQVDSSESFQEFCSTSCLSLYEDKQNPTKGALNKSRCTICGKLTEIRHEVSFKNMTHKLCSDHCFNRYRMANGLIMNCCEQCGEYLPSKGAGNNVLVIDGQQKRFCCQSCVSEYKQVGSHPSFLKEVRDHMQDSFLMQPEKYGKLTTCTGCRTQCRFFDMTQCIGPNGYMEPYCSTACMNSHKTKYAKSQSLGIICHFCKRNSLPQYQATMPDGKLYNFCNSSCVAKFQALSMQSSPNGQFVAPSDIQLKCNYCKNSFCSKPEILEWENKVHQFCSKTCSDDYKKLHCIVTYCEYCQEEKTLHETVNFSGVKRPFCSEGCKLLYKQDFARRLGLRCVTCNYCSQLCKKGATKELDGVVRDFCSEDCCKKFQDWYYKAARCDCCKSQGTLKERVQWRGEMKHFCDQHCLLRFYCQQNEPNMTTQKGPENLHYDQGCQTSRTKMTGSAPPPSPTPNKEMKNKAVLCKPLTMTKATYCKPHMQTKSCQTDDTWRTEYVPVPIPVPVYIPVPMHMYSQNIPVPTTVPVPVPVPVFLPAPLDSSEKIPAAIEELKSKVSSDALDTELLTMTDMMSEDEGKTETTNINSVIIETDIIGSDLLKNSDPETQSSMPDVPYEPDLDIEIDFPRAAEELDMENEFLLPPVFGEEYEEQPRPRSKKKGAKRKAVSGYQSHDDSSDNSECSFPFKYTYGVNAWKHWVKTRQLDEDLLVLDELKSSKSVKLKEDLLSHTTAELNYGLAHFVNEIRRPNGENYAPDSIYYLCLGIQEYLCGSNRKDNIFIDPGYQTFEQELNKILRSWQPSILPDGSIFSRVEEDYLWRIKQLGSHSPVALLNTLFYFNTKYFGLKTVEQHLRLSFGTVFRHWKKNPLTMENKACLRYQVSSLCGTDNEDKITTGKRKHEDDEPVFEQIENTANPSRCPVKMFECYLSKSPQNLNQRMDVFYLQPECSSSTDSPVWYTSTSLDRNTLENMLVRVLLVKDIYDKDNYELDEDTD
UniProt O15014: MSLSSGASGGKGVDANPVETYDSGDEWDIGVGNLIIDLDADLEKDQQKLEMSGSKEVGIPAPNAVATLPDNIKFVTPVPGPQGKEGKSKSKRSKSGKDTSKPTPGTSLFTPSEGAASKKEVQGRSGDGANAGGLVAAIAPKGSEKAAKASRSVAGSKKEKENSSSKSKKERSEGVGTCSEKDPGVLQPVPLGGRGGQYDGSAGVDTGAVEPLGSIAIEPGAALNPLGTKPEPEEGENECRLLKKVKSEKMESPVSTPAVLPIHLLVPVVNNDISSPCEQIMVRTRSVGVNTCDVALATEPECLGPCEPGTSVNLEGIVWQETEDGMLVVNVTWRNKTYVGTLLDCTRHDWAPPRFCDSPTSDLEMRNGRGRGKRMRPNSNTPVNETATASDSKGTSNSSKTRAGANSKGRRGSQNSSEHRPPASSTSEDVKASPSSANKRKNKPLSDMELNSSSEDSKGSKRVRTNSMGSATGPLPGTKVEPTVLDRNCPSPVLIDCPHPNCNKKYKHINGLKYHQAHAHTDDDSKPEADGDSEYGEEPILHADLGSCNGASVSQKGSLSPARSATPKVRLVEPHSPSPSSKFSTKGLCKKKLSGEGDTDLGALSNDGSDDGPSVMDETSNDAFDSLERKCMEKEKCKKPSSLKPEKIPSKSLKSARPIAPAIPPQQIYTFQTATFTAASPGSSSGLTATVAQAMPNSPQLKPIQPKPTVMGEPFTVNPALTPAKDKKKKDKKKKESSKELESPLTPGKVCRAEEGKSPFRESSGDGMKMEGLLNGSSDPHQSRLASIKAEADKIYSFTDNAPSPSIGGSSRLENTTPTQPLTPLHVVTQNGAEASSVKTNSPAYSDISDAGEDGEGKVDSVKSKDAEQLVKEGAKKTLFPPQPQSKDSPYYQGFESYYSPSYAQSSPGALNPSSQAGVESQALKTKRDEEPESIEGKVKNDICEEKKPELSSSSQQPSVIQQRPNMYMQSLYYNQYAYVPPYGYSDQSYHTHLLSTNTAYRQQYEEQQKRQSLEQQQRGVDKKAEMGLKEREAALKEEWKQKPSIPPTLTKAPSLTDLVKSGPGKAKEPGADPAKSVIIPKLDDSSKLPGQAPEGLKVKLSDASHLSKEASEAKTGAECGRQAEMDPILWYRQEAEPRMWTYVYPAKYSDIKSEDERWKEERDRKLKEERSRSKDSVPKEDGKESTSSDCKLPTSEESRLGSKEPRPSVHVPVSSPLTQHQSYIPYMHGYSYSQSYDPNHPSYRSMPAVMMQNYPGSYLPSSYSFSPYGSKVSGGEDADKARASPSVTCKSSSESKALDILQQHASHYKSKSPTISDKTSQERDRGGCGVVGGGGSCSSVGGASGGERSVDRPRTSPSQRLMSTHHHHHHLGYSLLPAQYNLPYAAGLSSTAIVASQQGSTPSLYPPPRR
UniProt O43149: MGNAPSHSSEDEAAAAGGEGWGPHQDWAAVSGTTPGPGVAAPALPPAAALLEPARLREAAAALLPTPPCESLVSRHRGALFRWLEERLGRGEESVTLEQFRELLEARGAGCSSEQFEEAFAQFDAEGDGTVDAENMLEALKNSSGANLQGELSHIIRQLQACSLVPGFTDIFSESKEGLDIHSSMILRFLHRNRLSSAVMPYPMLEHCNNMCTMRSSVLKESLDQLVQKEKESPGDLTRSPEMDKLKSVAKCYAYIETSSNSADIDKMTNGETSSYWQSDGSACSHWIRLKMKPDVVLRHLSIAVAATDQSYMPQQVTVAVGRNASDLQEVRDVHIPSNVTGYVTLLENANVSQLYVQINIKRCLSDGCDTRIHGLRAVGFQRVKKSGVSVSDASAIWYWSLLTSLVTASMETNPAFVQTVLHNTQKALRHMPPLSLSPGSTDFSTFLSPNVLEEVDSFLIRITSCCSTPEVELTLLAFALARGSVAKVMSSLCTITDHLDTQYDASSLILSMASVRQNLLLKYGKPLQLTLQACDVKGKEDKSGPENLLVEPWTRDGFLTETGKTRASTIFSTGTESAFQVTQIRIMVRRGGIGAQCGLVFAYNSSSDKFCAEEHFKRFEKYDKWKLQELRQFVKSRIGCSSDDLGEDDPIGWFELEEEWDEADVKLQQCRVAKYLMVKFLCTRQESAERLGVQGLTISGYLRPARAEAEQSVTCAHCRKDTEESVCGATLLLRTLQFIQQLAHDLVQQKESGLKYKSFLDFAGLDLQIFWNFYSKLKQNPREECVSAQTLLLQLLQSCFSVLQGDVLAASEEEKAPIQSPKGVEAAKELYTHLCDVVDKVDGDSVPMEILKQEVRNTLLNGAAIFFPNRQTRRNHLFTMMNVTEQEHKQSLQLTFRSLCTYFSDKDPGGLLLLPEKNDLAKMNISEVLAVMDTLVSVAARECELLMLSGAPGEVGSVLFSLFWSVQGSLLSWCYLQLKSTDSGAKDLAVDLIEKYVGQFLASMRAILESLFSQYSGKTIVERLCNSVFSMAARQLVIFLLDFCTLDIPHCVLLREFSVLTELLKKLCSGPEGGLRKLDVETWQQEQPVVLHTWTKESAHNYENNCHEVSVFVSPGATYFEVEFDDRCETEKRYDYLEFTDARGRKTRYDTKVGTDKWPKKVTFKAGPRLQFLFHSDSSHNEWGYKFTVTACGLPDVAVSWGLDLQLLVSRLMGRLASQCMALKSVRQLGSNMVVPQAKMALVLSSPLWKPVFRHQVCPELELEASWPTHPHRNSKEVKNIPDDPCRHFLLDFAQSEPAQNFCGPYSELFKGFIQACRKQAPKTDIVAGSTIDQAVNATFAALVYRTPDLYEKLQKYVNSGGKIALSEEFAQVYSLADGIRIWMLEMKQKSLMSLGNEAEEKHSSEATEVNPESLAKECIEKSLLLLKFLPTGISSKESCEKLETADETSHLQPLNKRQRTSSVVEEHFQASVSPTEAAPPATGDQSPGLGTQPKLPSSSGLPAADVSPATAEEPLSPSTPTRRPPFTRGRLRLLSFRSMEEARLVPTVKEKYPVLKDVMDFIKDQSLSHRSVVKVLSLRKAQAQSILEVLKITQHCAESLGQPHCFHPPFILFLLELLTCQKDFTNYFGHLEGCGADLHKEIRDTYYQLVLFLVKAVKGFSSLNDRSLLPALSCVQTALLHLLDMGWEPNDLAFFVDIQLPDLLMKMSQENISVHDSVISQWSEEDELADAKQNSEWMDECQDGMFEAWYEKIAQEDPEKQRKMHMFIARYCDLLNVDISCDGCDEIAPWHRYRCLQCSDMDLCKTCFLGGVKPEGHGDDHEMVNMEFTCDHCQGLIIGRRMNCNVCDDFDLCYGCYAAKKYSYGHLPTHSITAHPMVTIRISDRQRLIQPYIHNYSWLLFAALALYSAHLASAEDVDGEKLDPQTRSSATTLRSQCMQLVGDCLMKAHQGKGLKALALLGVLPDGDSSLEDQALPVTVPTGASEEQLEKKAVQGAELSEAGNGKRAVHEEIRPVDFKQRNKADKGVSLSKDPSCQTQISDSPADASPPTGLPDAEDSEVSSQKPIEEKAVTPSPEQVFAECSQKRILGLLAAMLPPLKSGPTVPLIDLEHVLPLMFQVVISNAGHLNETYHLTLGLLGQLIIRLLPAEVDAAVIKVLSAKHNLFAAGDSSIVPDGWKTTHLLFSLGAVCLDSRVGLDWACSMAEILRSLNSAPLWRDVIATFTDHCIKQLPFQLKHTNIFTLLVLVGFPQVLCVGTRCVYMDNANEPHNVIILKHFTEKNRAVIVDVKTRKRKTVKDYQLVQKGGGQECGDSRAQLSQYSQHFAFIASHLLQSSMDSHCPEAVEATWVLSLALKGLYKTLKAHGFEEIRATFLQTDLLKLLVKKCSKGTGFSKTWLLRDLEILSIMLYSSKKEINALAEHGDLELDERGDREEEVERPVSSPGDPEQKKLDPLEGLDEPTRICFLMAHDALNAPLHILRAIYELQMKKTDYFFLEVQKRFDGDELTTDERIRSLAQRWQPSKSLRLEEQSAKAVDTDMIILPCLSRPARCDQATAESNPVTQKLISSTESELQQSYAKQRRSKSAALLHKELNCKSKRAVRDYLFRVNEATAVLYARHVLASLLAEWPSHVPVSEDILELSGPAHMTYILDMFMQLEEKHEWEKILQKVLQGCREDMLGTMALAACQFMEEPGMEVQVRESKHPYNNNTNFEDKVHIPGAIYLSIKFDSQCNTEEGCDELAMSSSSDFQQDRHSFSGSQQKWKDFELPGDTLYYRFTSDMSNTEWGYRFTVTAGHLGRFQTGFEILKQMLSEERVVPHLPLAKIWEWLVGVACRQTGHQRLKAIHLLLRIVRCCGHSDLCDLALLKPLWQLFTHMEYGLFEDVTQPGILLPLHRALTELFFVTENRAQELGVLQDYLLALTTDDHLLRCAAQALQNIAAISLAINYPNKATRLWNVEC
UniProt Q86WB0: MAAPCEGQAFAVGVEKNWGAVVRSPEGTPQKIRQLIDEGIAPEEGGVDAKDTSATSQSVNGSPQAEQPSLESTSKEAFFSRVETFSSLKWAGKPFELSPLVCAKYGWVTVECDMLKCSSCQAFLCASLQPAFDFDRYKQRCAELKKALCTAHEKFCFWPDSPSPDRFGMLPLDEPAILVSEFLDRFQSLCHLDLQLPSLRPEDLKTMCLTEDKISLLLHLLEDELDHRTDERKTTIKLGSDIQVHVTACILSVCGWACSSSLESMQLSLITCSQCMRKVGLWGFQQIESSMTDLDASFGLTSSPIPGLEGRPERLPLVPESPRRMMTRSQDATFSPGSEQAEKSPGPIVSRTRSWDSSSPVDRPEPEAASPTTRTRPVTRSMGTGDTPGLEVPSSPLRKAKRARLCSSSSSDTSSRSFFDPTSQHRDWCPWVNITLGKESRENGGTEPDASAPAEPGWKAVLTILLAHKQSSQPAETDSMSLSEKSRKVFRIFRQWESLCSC

The other results are listed elsewhere or left out. The data scatter; read single values as rough.

Compound in one assay: ClCC(=O)N[C@H]1CCCc2ccccc12
As to the kind of experiment: log2 mean competition ratio of IA-DTB cysteine labelling (DMSO/compound) (log2 ratio); higher = stronger cysteine engagement by compound. The settings on record: 50 µM; treatment time: 4 h; cell line lysate: HEK293T. Here is the method: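 IA-DTB competitive cysteine chemoproteomics in HEK293T RIPA lysate. Lysates were treated with compound 29 or 30 at 50 or 200 µM for 4 h, then IA-DTB (500 µM, 1 h), trypsin-digested, NeutrAvidin-enriched and analysed by diaPASEF. Competition ratio = intensity DMSO / intensity compound (n=4 treated, n=64 DMSO); binding: mean log2 CR ≥ 1 and p ≤ 0.05 plus QC filters. Target is the cysteine site.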
As for ZNF655 C189 (UniProt Q8N720), the “log2 mean competition ratio” value is -0.909.

On to ZNF776 C238, for which the “log2 mean competition ratio” value was -0.152.

Regarding ZNF668 C49 (UniProt Q96K58), the “log2 mean competition ratio” value is 0.0293.

For ZMYM2 C663 (UniProt Q9UBW7), the “log2 mean competition ratio” value stood at 0.0969.

As to ZNF451 C441 (UniProt Q9Y4E5), the “log2 mean competition ratio” value was 0.0793.

For the target ZNF638 C879 (UniProt Q14966), the “log2 mean competition ratio” value was determined as 0.102.

With ZHX2 C738 (UniProt Q9Y6X8), the “log2 mean competition ratio” value is -0.398.

Regarding ZNF609 C345 (UniProt O15014), the “log2 mean competition ratio” value is -0.446.

As for ZDHHC20 C131 (UniProt Q5W0Z9), the “log2 mean competition ratio” value is -0.0298.

For the target ZNF292 C1050 (UniProt O60281), the “log2 mean competition ratio” value was -0.0778.

As for ZNF609 C944 (UniProt O15014), the “log2 mean competition ratio” value was -0.226.

For the target ZZEF1 C2312 (UniProt O43149), the “log2 mean competition ratio” value was -0.0539.

Regarding ZC3HC1 C156 (UniProt Q86WB0), the “log2 mean competition ratio” value is 0.0198.

Take ZZZ3 C104 (UniProt Q8IYH5): the “log2 mean competition ratio” value was -0.0896.

For ZZEF1 C728 (UniProt O43149), the “log2 mean competition ratio” value came out at 0.14.

Consider ZMYM2 C667 (UniProt Q9UBW7), for which the “log2 mean competition ratio” value is -0.159.

ZNF644 C62 (UniProt Q9H582): the “log2 mean competition ratio” value is 0.017.

ZMYM2 C1268 (UniProt Q9UBW7): the “log2 mean competition ratio” value is -0.709.

As for ZZZ3 C268 (UniProt Q8IYH5), the “log2 mean competition ratio” value was -0.493.

Consider ZNF592 C353 (UniProt Q92610), for which the “log2 mean competition ratio” value was -0.0912.

Staying with this assay, now noted: 200 µM; treatment time: 4 h; cell line lysate: HEK293T.
Take ZNF655 C189 (UniProt Q8N720): the “log2 mean competition ratio” value is -0.00026.

For the target ZNF776 C238, the “log2 mean competition ratio” value was 0.141.

On to ZNF668 C49 (UniProt Q96K58), for which the “log2 mean competition ratio” value was -0.303.

Consider ZMYM2 C663 (UniProt Q9UBW7), for which the “log2 mean competition ratio” value is -0.323.

Take ZNF451 C441 (UniProt Q9Y4E5): the “log2 mean competition ratio” value is -0.0833.

Consider ZNF638 C879 (UniProt Q14966), for which the “log2 mean competition ratio” value stood at 0.161.

Turning to ZHX2 C738 (UniProt Q9Y6X8), the “log2 mean competition ratio” value came to 0.402.

In the case of ZNF609 C345 (UniProt O15014), the “log2 mean competition ratio” value stood at 0.0373.

As to ZDHHC20 C131 (UniProt Q5W0Z9), the “log2 mean competition ratio” value was -0.0467.

With ZNF292 C1050 (UniProt O60281), the “log2 mean competition ratio” value is -0.123.

On to ZNF609 C944 (UniProt O15014), for which the “log2 mean competition ratio” value is -0.214.

With ZZEF1 C2312 (UniProt O43149), the “log2 mean competition ratio” value turned out to be 0.129.

Turning to ZC3HC1 C156 (UniProt Q86WB0), the “log2 mean competition ratio” value was -0.0889.

Turning to ZZZ3 C104 (UniProt Q8IYH5), the “log2 mean competition ratio” value came out at 0.421.

Turning to ZZEF1 C728 (UniProt O43149), the “log2 mean competition ratio” value came to 0.271.

ZMYM2 C667 (UniProt Q9UBW7): the “log2 mean competition ratio” value was -0.0841.

With ZNF644 C62 (UniProt Q9H582), the “log2 mean competition ratio” value came out at 0.147.

Regarding ZMYM2 C1268 (UniProt Q9UBW7), the “log2 mean competition ratio” value was determined as 0.138.

As to ZZZ3 C268 (UniProt Q8IYH5), the “log2 mean competition ratio” value is -0.137.

Consider ZNF592 C353 (UniProt Q92610), for which the “log2 mean competition ratio” value was found to be 0.0895.
